From PubChem BioAssay AID2685 (National Center for Advancing Translational Sciences (NCATS), 2010)
Some of the results follow. The main result of the screen is listed elsewhere. These columns were measured beside it and carry no call. Compounds called inactive in the main read-out are mostly missing here. Potencies come from curve fits of mixed quality, noted in brackets.

Assay: qHTS Assay for Lipid Storage Modulators in Drosophila S3 Cells;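 as to cell number change: cells counted by Cell Tracker Red CMTPX staining in the red channel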
Details: BODIPY lipid droplet fluorescence, 18-24 h; for cell number change: measured here: cell count max response, cells fed with added oleic acid
How it was run: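 Drosophila S3 cells got compounds at several concentrations plus oleic acid (400 uM solution). Laser-scanning cytometry with 488 nm excitation read lipid droplets at 500-530 nm and cells at 575-640 nm. Percent activity was relative to 20 uM Triacsin C.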

[1] = measured here: cell number channel AC50, cells fed with added oleic acid
[2] = measured here: lipid fluorescence (Fed channel) AC50, cells fed with added oleic acid

SMILES | cell number change [%] | AC50 [1] | AC50 [2]
CCN1C(=O)/C(=C/c2ccc(C)s2)SC1=Nc1ccc(OC)cc1 | 40.4 | 9.2 µM [rising, partial curve, poor fit] | 29.1 µM [rising, single point]
CC(=O)Nc1cc2c(cc1C(=O)C(C)C)OCCO2 | – | 0.116 µM [falling, full curve, poor fit] | 29.1 µM [rising, single point]
CCn1c(CC(=O)Nc2ccccc2F)nnc1SCC(=O)N1CCN(c2ccccc2)CC1 | 0.688 | 6.51 µM [falling, single point] | 0.058 µM [falling, full curve, poor fit]
O=C(NC(=S)NNC(=O)c1ccccc1O)c1ccco1 | – | – | 8.2 µM [falling, partial curve]
CCN(CC)C(=O)CSc1nnc(-c2cc3ccccc3cc2O)n1CC | -36.2 | – | 29.1 µM [falling, single point]
CSc1nc(-c2ccccc2)nc(N)c1C(C)=O | -28.1 | – | 6.51 µM [falling, single point]
CC(C)C(NC(=O)c1ccco1)C(=O)OCC(=O)Nc1ccc(C(N)=O)cc1 (stereo not drawn) | – | – | 10.3 µM [rising, partial curve]
O=C(/C=C/c1ccc(Cl)c([N+](=O)[O-])c1)Nc1ccc(N2CCCC2)c(Cl)c1 | -52.7 | 1.84 µM [falling, full curve, poor fit] | 4.11 µM [falling, full curve]
O=C(N/N=C/c1cccnc1)c1cccc(NC(=O)c2cccc(Br)c2)c1 | 71.7 | 16.4 µM [rising, single point] | –
COc1ccccc1Nc1nn2c(=O)c3ccc(C(=O)N4CCCCC4)cc3nc2s1 | 8.02 | – | 6.51 µM [falling, single point]
CC1CCCC(C)N1C(=O)c1cc(-c2ccco2)on1 (stereo not drawn) | -3.33 | – | 0.00461 µM [rising, full curve]
COc1cccc(N/C(SCc2ccccc2Cl)=C(/C#N)C(=O)NCc2cccs2)c1 | 9.39 | – | 1.16 µM [falling, single point]
O=C(O)/C=C/C(=O)N1N=C(c2ccco2)CC1c1ccco1 (stereo not drawn) | -28.5 | 0.00651 µM [falling, full curve, poor fit] | 14.6 µM [falling, single point]
COc1ccc(Cl)cc1NC(=O)CSc1nnc(Cn2c(=O)sc3ccccc32)n1C | -58.7 | 23.1 µM [falling, partial curve] | 14.6 µM [falling, partial curve]
Cc1cccc(N/C=C(\[N+](=O)[O-])S(=O)(=O)c2ccccc2)c1C | -14 | – | 32.6 µM [falling, single point]
CSC1=NCCN1C(=O)c1ccc(C)cc1 | -0.615 | – | –
O=C(c1cncc(Br)c1)N1CCCc2ccccc21 | 12.4 | – | 8.2 µM [rising, partial curve]
CC(=O)Nc1cccc(Oc2ncnc3scc(-c4ccc(C)cc4)c23)c1 | -23 | – | 9.2 µM [falling, partial curve, poor fit]

Filtered by structure: the compounds so far containing bromine
SMILES | cell number change [%] | AC50 [1] | AC50 [2]
O=C(N/N=C/c1cccnc1)c1cccc(NC(=O)c2cccc(Br)c2)c1 | 71.7 | 16.4 µM [rising, single point] | –
O=C(c1cncc(Br)c1)N1CCCc2ccccc21 | 12.4 | – | 8.2 µM [rising, partial curve]

Next part:

SMILES | cell number change [%] | AC50 [1] | AC50 [2]
CCc1ccccc1NC(=O)Nc1cccc(F)c1 | -17.2 | – | 5.17 µM [falling, partial curve]
Cc1cccc(Nc2nc(N)c(C#N)c(CC#N)c2C#N)c1 | 25.4 | – | 29.1 µM [rising, single point]
O=C(NCC(=O)N(Cc1cccs1)C(C(=O)NC1CCCC1)c1ccco1)c1cccs1 (stereo not drawn) | – | 6.51 µM [rising, single point] | –
Cc1cc(C)n(CC(O)CN2c3ccccc3Sc3ccccc32)n1 (stereo not drawn) | -24.4 | – | 1.84 µM [falling, single point]
Cc1cc(C)c(S(=O)(=O)N(C)Cc2cnn(C)c2)c(C)c1 | 13.6 | – | 6.51 µM [falling, single point]
O=C(NCc1ccco1)C1CCN(c2nnc(-n3cccc3)s2)CC1 | 46.8 | 23.1 µM [rising, single point] | –
O=C(NCCN1CCCC1)c1ccc(Cn2c(=S)[nH]c3ccc(Br)cc3c2=O)cc1 | -0.814 | 0.651 µM [falling, single point] | 0.58 µM [falling, partial curve, poor fit]
N=C1/C(=C/c2ccco2)C(=O)N=C2SC(CC(=O)N3CCCC3)=NN12 | – | – | 2.06 µM [falling, partial curve, poor fit]
Cc1cnc(C(=O)Nc2ccccc2-n2cccc2)cn1 | – | – | 0.092 µM [falling, full curve, poor fit]
Cc1ccc(OCc2cc(C(=O)N3CC4C[C@@H]5CC3C[C@H](C4)C5)no2)cc1C | 43.6 | 29.1 µM [rising, single point] | –
COc1cc(CO)ccc1OCc1nnnn1-c1ccc(C)cc1 | -11.2 | – | 5.17 µM [falling, full curve]
CC1CCCCC1NCc1cccc([N+](=O)[O-])c1 (stereo not drawn) | 0.0951 | – | 0.517 µM [falling, full curve]
Cn1c2c(c3ccccc31)CCSC2=O | 9.57 | – | 10.3 µM [rising, partial curve]
Cc1ccc(N2CCN(C3=NC(=O)/C(=C\c4cccs4)S3)CC2)cc1 | – | 0.82 µM [rising, full curve] | 1.84 µM [rising, partial curve]
C=CCN1C(=O)C(Cc2ccc(OCC)cc2)S/C1=N\N=C\c1cccs1 (stereo not drawn) | 0.925 | – | 6.51 µM [falling, single point]
Cc1cc(C)n(C(=O)CCCn2nc(C)c([N+](=O)[O-])c2C)n1 | -37.7 | 23.1 µM [falling, single point] | –
COc1ccc(Cl)cc1NC(=O)CSc1nc(=O)n(CCN(C)C)c2c1CCCC2 | – | 0.00517 µM [falling, full curve, poor fit] | 0.00411 µM [falling, full curve, poor fit]
CCOC(=O)c1ccc(NC(=O)CCc2nc(-c3ccccc3Cl)no2)cc1 | 5.75 | 0.517 µM [falling, full curve, poor fit] | 0.411 µM [falling, full curve, poor fit]
